# Test results reported in PubChem BioAssay AID2551 (National Center for Advancing Translational Sciences (NCATS), 2010).
# Sequences of proteins named here, by UniProt entry; tags and fusion partners are left off. A change or cut given only in a name is not applied to a line headed by its entry.
# UniProt P51450: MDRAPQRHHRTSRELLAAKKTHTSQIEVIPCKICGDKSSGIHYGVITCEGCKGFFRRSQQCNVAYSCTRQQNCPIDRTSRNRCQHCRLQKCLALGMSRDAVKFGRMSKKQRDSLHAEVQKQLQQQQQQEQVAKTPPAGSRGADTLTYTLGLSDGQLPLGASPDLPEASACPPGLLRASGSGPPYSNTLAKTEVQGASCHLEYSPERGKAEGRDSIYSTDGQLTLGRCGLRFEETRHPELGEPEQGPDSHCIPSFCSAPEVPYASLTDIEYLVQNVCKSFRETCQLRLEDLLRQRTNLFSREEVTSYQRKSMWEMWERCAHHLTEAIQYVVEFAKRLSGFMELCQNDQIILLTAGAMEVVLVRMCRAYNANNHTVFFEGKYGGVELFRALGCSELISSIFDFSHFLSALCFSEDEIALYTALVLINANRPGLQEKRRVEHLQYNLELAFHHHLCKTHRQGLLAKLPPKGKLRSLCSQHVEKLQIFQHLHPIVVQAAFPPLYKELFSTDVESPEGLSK
# Several values for one entry are separate records, joined by “and”; a condition that tells them apart may be missing. Equal values may be shown once. Out of some 310,000 compounds screened, about 17,000 (5.5%) were called active. Inconclusive results, whose numbers are uncertain, are shown with a selection of clear calls. Calls follow the shape of the dose curve; as a rule, active = well fitted inhibition curve with a large enough effect; inconclusive = small, poorly fitted or top-dose-only effect, or effect the other way; inactive = no such curve, though single readings can be large or run the other way. Where the call is inconclusive, the potency comes from a doubtful curve fit.
# Biological target: Nuclear receptor ROR-gamma (Mus musculus) (UniProt P51450)
# Assay: qHTS for inhibitors of ROR gamma transcriptional activity; also: nearly all actives have a fitted effect of over 60% in size
# Conditions: Drosophila S2 Gal4-RORgamma UAS-luciferase reporter, 20 h; series mostly up to 53.6 µM
# How it was run: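 Stably transfected Drosophila Schneider cells are the test system, with ROR gamma fused to Gal4 and luciferase under UAS control; luminescence is read after 20 hr of 700 uM copper sulfate induction at ambient temperature.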
# Potency is read from the fitted curve at half-maximal effect.
row,SMILES,Potency
1,Cc1cccc(NC(=O)c2cn(-c3ccccc3)nc2-c2ccccc2)c1,"inconclusive: 12.6 µM [activator, single point]"
2,COc1ccc(C)cc1Nc1n[n+](-c2ccccc2)c(-c2cc(OC)c(OC)cc2Br)s1,active: 10 µM
3,CSc1nc2nc(C(F)(F)F)cc(-c3ccccc3)n2n1,"inconclusive: 35.5 µM [activator, single point]"
4,O=c1ccn(-c2cccc(C(F)(F)F)c2)nc1-c1ccn(-c2cccc(Cl)c2)n1,"inconclusive: 35.5 µM [activator, single point]"
5,CCn1nc(C(=O)OCC(=O)N2CCc3ccccc32)c2ccccc2c1=O,"inconclusive: 31.6 µM [activator, single point]"
6,CCCC(C(=O)Nc1cc(S(=O)(=O)N2CCOCC2)ccc1OC)c1ccccc1 (centres undefined),inactive
7,COc1ccccc1C(=O)NNC(=O)c1nn(Cc2ccccc2)c(=O)c2ccccc12,active: 6.31 µM
8,O=C(Nc1ccc(F)cc1)c1cccc(N2C(=O)C3C4C=CC(C5CC45)C3C2=O)c1 (centres undefined),"inconclusive: 12.6 µM [activator, single point]"
9,O=C1CN(C(=O)CSc2nnnn2-c2ccc(Cl)cc2)c2ccccc2N1,active: 3.55 µM
10,Oc1ccc(Nc2nc(-c3ccc(Cl)cc3)cs2)cc1,"inactive and inconclusive: 11.2 µM [inhibitor, single point]"
11,CCc1ccccc1NC(=S)N(CCOC)C(C)c1ccco1 (centres undefined),active: 12.6 µM
12,CC(C)c1nc2sc3c(c2c(=O)n1N)CC(C)(C)OC3,"inconclusive: 35.5 µM [activator, single point]"
13,Cc1cc(C)nc(NS(=O)(=O)c2ccc(NC(=S)NC(=O)c3ccco3)cc2)n1,inactive
14,O=C(Cc1ccccc1)Nc1ccc(C(=O)NCC2COc3ccccc3O2)cc1 (centres undefined),"inconclusive: 10 µM [activator, partial curve]"
15,CCOC(=O)C1=C(C)Nc2nc3ccccc3n2C1c1ccccc1 (centres undefined),inactive
16,CC(=O)c1ccc(NC(=O)C(C)Nc2ccc(Cl)cc2)cc1 (centres undefined),"inconclusive: 35.5 µM [activator, single point]"
17,Cc1ccnc(NC(=S)N2CCN(c3cccc(C(F)(F)F)c3)CC2)c1,active: 0.316 µM
18,CC(C)c1cc(Br)ccc1OCCCN1C(=O)NC(C)(C)C1=O,inactive
19,c1csc(CNc2ncnc3nc[nH]c23)c1,"inconclusive: 12.6 µM [activator, partial curve]"
20,O=C(CCc1ccc(S(=O)(=O)NC2CCCCC2)cc1)N(Cc1ccccc1)Cc1ccccc1,inactive
21,COc1ccc(/C(=N\Nc2ccccc2C(=O)O)c2ccccc2)cc1,"inconclusive: 12.6 µM [activator, single point]"
22,Cc1ccc(/C=C2/NC(=O)N(Cc3ccccc3F)C2=O)o1,"inconclusive: 35.5 µM [inhibitor, single point]"
23,O=C(N/N=C/c1ccc2c(c1)OCO2)c1ccc(NC(=O)c2ccccc2Cl)cc1,"inconclusive: 10 µM [activator, partial curve]"

row,SMILES,Potency
1,O=C1C2C3C=CC(C4CC34)C2C(=O)N1/N=C/c1ccc(-c2ccc(F)cc2[N+](=O)[O-])o1 (centres undefined),"inconclusive: 12.6 µM [activator, partial curve]"
2,Cc1ccc(-n2ncc3c(=O)n(CC(=O)NCc4ccco4)cnc32)cc1C,inactive
3,COc1ccc(CCNC(=S)NC(=O)c2ccc(Br)cc2)cc1OC,active: 12.6 µM
4,C=CCn1c(COc2ccccc2F)nnc1SCC(=O)c1c[nH]c2ccccc12,inactive
5,Cc1cc(C)n(-c2ccc(C(=O)Nc3ccc(C)c(S(=O)(=O)N4CCOCC4)c3)cc2)n1,"inconclusive: 2 µM [activator, partial curve]"
6,Cn1c(=O)[nH]c(=O)c2c1nc(Br)n2C/C=N/NC(N)=S,"inconclusive: 10 µM [inhibitor, single point]"
7,Cc1ccc(-c2csc3nc[nH]c(=S)c23)cc1C,active: 0.447 µM
8,COc1ccc(-c2nnc(N(C)C(=O)C3CCCO3)s2)cc1 (centres undefined),"inconclusive: 0.0562 µM [activator, partial curve, poor fit]"
9,O=C(NC(=S)Nc1ccc2c(c1)OCCO2)c1ccccc1,active: 3.98 µM
10,O=C(Nc1cccnc1)c1ccc(Cl)c(Cl)c1,"inconclusive: 0.126 µM [activator, single point]"
11,COc1ccccc1N1CCN(C(=O)Nc2ccc(F)c(Cl)c2)CC1,"inconclusive: 35.5 µM [activator, single point]"
12,COc1ccc(C)cc1NC(=O)CSc1nnc(COc2ccc(Cl)cc2)n1Cc1ccco1,"inconclusive: 14.1 µM [activator, partial curve, poor fit]"
13,CCOc1ccccc1CNc1ccc(N2CCOCC2)c(C(=O)O)c1,"inconclusive: 6.31 µM [inhibitor, partial curve]"
14,CC(/C=C/c1ccco1)=N\NC(=O)c1cc(C)[nH]n1,"inconclusive: 15.8 µM [activator, partial curve]"
15,COC(=O)c1cc(=O)n(CCc2ccccc2)c(=Nc2ccc(F)cc2)s1,active: 8.91 µM
16,COc1cc(/C=N/NC(=O)c2cccc([N+](=O)[O-])c2)ccc1OC(=O)c1ccco1,"inconclusive: 35.5 µM [inhibitor, single point]"
17,C/C=C/c1ccc(OCc2cc(=O)n3cc(C)ccc3n2)c(OC)c1,"inconclusive: 20 µM [activator, single point]"
18,COCCOC(=O)C1=C(C)NC(=O)NC1c1cc2c(cc1Br)OCO2 (centres undefined),inactive
19,Cc1ccc(/C=C(\C#N)C(=O)NC(C)c2ccccc2)o1 (centres undefined),"inconclusive: 14.1 µM [activator, partial curve]"
20,CC(C)Oc1ccc(C(=O)NC2=NCCS2)cc1,active: 10 µM
21,CCOC(=O)c1ccc(Nc2ncnc3ccccc23)cc1,"inconclusive: 11.2 µM [activator, partial curve]"
22,CN(c1cccc(Cl)c1)S(=O)(=O)c1cccc(C(=O)Nc2ccc3c(c2)CCC3)c1,"inconclusive: 22.4 µM [activator, single point]"
23,O=C(c1cc(-c2ccccc2Cl)on1)N1CCCC1,active: 12.6 µM

# Arranged by SMILES length (falling): some entries from above.
row,SMILES,Potency
1,O=C1C2C3C=CC(C4CC34)C2C(=O)N1/N=C/c1ccc(-c2ccc(F)cc2[N+](=O)[O-])o1 (centres undefined),"inconclusive: 12.6 µM [activator, partial curve]"
5,Cc1cc(C)n(-c2ccc(C(=O)Nc3ccc(C)c(S(=O)(=O)N4CCOCC4)c3)cc2)n1,"inconclusive: 2 µM [activator, partial curve]"
16,COc1cc(/C=N/NC(=O)c2cccc([N+](=O)[O-])c2)ccc1OC(=O)c1ccco1,"inconclusive: 35.5 µM [inhibitor, single point]"
22,CN(c1cccc(Cl)c1)S(=O)(=O)c1cccc(C(=O)Nc2ccc3c(c2)CCC3)c1,"inconclusive: 22.4 µM [activator, single point]"
12,COc1ccc(C)cc1NC(=O)CSc1nnc(COc2ccc(Cl)cc2)n1Cc1ccco1,"inconclusive: 14.1 µM [activator, partial curve, poor fit]"
2,Cc1ccc(-n2ncc3c(=O)n(CC(=O)NCc4ccco4)cnc32)cc1C,inactive
15,COC(=O)c1cc(=O)n(CCc2ccccc2)c(=Nc2ccc(F)cc2)s1,active: 8.91 µM
17,C/C=C/c1ccc(OCc2cc(=O)n3cc(C)ccc3n2)c(OC)c1,"inconclusive: 20 µM [activator, single point]"
6,Cn1c(=O)[nH]c(=O)c2c1nc(Br)n2C/C=N/NC(N)=S,"inconclusive: 10 µM [inhibitor, single point]"
11,COc1ccccc1N1CCN(C(=O)Nc2ccc(F)c(Cl)c2)CC1,"inconclusive: 35.5 µM [activator, single point]"
3,COc1ccc(CCNC(=S)NC(=O)c2ccc(Br)cc2)cc1OC,active: 12.6 µM
13,CCOc1ccccc1CNc1ccc(N2CCOCC2)c(C(=O)O)c1,"inconclusive: 6.31 µM [inhibitor, partial curve]"
14,CC(/C=C/c1ccco1)=N\NC(=O)c1cc(C)[nH]n1,"inconclusive: 15.8 µM [activator, partial curve]"
9,O=C(NC(=S)Nc1ccc2c(c1)OCCO2)c1ccccc1,active: 3.98 µM
21,CCOC(=O)c1ccc(Nc2ncnc3ccccc23)cc1,"inconclusive: 11.2 µM [activator, partial curve]"
20,CC(C)Oc1ccc(C(=O)NC2=NCCS2)cc1,active: 10 µM

# (cont.)

row,SMILES,Potency
1,O=C(NCC(O)c1ccc([N+](=O)[O-])cc1)c1cccc(S(=O)(=O)N2CCCC2)c1 (centres undefined),"inconclusive: 11.2 µM [activator, single point]"
2,N#Cc1nc(Cc2ccccc2)oc1NCc1ccccc1,"inconclusive: 15.8 µM [activator, single point]"
3,CCCC(=O)NC(=S)Nc1ccccc1F,active: 3.98 µM
4,Cc1ccc(NC(=O)c2c([N+](=O)[O-])c(C(C)(C)C)nn2C)cc1,inactive
5,CCCC1Cc2c(sc(NC(=S)NC(=O)c3ccccc3)c2C#N)CO1 (centres undefined),active: 4.47 µM
6,Cc1nn2c(N3CCN(C)CC3)cc(C(C)(C)C)nc2c1-c1ccccc1,"inconclusive: 15.8 µM [inhibitor, single point]"
7,Cc1cccc(/C=N/NC(=O)c2ccc(Br)cc2)c1,active: 17.8 µM
8,CO[C@H]1C[C@@H]2CC[C@@H](C)[C@@](O)(O2)C(=O)C(=O)N2CCCC[C@H]2C(=O)O[C@H]([C@H](C)C[C@@H]2CC[C@@H](O)[C@H](OC)C2)CC(=O)[C@H](C)/C=C(\C)[C@@H](O)[C@@H](OC)C(=O)[C@H](C)C[C@H](C)/C=C/C=C/C=C/1C,"inconclusive: 35.5 µM [inhibitor, single point]"
9,Cc1ccc(SC(=O)c2c(C)noc2-c2cc(C)on2)cc1,"inconclusive: 3.55 µM [inhibitor, single point]"
10,Cc1nc(CNS(=O)(=O)c2cc(C)c(C)cc2C)cs1,inactive
11,COC(=O)C1C2C=CC3(CN(c4ccc(Cl)c(F)c4)C(=O)C13)O2 (centres undefined),"inconclusive: 0.005 µM [inhibitor, full curve, poor fit]"
12,CC(=O)Nc1sc2c(c1C#N)CCCCC2,"inconclusive: 35.5 µM [activator, single point]"
13,CC(C)[C@H](NC(=O)c1ccccc1)C(=O)OCc1nc2scc(-c3ccccc3)c2c(=O)[nH]1,"inconclusive: 28.2 µM [activator, single point]"
14,Cc1cccc(OCC(=O)Nc2ccc(N3CCN(C(=O)c4ccccc4)CC3)cc2)c1C,inactive
15,CS(=O)(=O)N1N=C(c2ccc(Br)cc2)CC1c1cccs1 (centres undefined),"inconclusive: 7.94 µM [activator, partial curve]"
16,CCOC(=O)c1cc2sccc2n1CCCN1C(=O)c2ccccc2C1=O,"inconclusive: 25.1 µM [inhibitor, single point]"
17,CCc1c(O)nc(SCC(=O)Nc2ccc(OC)cc2)n(C2CCCCC2)c1=O,"inconclusive: 35.5 µM [activator, single point]"
18,CCCCC1S/C(=N/N=C/c2cccs2)NC1=O (centres undefined),active: 0.112 µM
19,Cc1nc2ccc(S(=O)(=O)NC(C(=O)Nc3nc4ccc(Cl)cc4s3)C(C)C)cc2s1 (centres undefined),"inconclusive: 35.5 µM [inhibitor, single point]"
20,CCCCOc1ncnc2c1[nH]c1ccc(F)cc12,"inconclusive: 2.51 µM [activator, partial curve]"
21,COCCCn1c(=NC(=O)c2ccncc2)c(C#N)cc2c(=O)n3cccc(C)c3nc21,"inconclusive: 0.224 µM [inhibitor, partial curve]"
22,Cc1ccc2[nH]c(=O)c(CN(Cc3cccs3)C(=S)NCc3ccco3)cc2c1,"inconclusive: 35.5 µM [inhibitor, single point]"
23,O=S(=O)(c1ccc(Br)cc1)N1CCCC1c1nc2ccccc2s1 (centres undefined),"inconclusive: 17.8 µM [activator, partial curve, poor fit]"
